# Measured values from PMC8384837.
# Changes are numbered by the printed parent chain. Some of the results follow. For some of these results: At the low end of the ranking the order means little.
# Key:
# Settings in all cases: yeast three-hybrid, YBZ-1, SC-Leu-His + 0.5 mM 3-AT, 4 days
# [1] = target: T1, PUM1 PUF domain R3-SPS C935S + R936P + Q939S (UniProt Q14671)
# T1 sequence: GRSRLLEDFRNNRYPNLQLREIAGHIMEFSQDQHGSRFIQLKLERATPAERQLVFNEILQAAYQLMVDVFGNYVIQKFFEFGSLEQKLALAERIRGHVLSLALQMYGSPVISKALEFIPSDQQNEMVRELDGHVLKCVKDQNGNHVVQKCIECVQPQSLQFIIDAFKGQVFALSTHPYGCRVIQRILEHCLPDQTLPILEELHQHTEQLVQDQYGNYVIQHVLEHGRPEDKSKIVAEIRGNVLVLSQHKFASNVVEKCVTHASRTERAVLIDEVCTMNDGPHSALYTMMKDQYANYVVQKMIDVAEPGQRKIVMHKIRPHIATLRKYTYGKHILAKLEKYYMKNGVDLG
# [2] = target: T2, PUM1 PUF domain R3-SPT C935S + R936P + Q939T (UniProt Q14671)
# T2 sequence: T1 sequence with S112T
# [3] = target: T3, PUM1 PUF domain R3-SPW C935S + R936P + Q939W (UniProt Q14671)
# T3 sequence: T1 sequence with S112W
# [4] = target: T4, PUM1 PUF domain R3-SRA C935S + Q939A (UniProt Q14671)
# T4 sequence: T1 sequence with P109R, S112A
# [5] = target: T5, PUM1 PUF domain R3-SRG C935S + Q939G (UniProt Q14671)
# T5 sequence: T1 sequence with P109R, S112G
# [6] = target: T6, PUM1 PUF domain R3-SRH C935S + Q939H (UniProt Q14671)
# T6 sequence: T1 sequence with P109R, S112H
# [7] = target: T7, PUM1 PUF domain R3-SRK C935S + Q939K (UniProt Q14671)
# T7 sequence: T1 sequence with P109R, S112K
# [8] = target: T8, PUM1 PUF domain R3-SRL C935S + Q939L (UniProt Q14671)
# T8 sequence: T1 sequence with P109R, S112L
# [9] = target: T9, PUM1 PUF domain R3-SRP C935S + Q939P (UniProt Q14671)
# T9 sequence: T1 sequence with P109R, S112P
# [10] = target: T10, PUM1 PUF domain R3-SRS C935S + Q939S (Homo sapiens) (UniProt Q14671)
# T10 sequence: T1 sequence with P109R
# [11] = target: T11, PUM1 PUF domain R3-SRV C935S + Q939V (UniProt Q14671)
# T11 sequence: T1 sequence with P109R, S112V
# [12] = target: T12, PUM1 PUF domain R3-SSD C935S + R936S + Q939D (UniProt Q14671)
# T12 sequence: T1 sequence with P109S, S112D
# [13] = target: T13, PUM1 PUF domain R3-SSE C935S + R936S + Q939E (UniProt Q14671)
# T13 sequence: T1 sequence with P109S, S112E
# [14] = target: T14, PUM1 PUF domain R3-STD C935S + R936T + Q939D (UniProt Q14671)
# T14 sequence: T1 sequence with P109T, S112D
# [15] = target: T15, PUM1 PUF domain R3-SVE C935S + R936V + Q939E (UniProt Q14671)
# T15 sequence: T1 sequence with P109V, S112E
# [16] = target: T16, PUM1 PUF domain R3-SWL C935S + R936W + Q939L (UniProt Q14671)
# T16 sequence: T1 sequence with P109W, S112L
# [17] = target: T17, PUM1 PUF domain R3-TCE C935T + R936C + Q939E (UniProt Q14671)
# T17 sequence: T1 sequence with S108T, P109C, S112E
# [18] = target: T18, PUM1 PUF domain R3-THE R4-TFR C935T + R936H + Q939E + N971T + H972F + Q975R (UniProt Q14671)
# T18 sequence: T1 sequence with S108T, P109H, S112E, N144T, H145F, Q148R
# [19] = target: T19, PUM1 PUF domain R3-THE R4-TFR R7-NPG C935T + R936H + Q939E + N971T + H972F + Q975R + S1079N + N1080P + E1083G (UniProt Q14671)
# T19 sequence: T1 sequence with S108T, P109H, S112E, N144T, H145F, Q148R, S252N, N253P, E256G
# [20] = target: T20, PUM1 PUF domain R3-TQE C935T + R936Q + Q939E (UniProt Q14671)
# T20 sequence: T1 sequence with S108T, P109Q, S112E
# [21] = target: T21, PUM1 PUF domain R3-TRA C935T + Q939A (UniProt Q14671)
# T21 sequence: T1 sequence with S108T, P109R, S112A
# [22] = target: T22, PUM1 PUF domain R3-TRC C935T + Q939C (UniProt Q14671)
# T22 sequence: T1 sequence with S108T, P109R, S112C
# [23] = target: T23, PUM1 PUF domain R3-TRG C935T + Q939G (UniProt Q14671)
# T23 sequence: T1 sequence with S108T, P109R, S112G
# [24] = target: T24, PUM1 PUF domain R3-TRL C935T + Q939L (UniProt Q14671)
# T24 sequence: T1 sequence with S108T, P109R, S112L
# [25] = target: T25, PUM1 PUF domain R3-TRP C935T + Q939P (UniProt Q14671)
# T25 sequence: T1 sequence with S108T, P109R, S112P
# [26] = target: T26, PUM1 PUF domain R3-TRW C935T + Q939W (UniProt Q14671)
# T26 sequence: T1 sequence with S108T, P109R, S112W
# [27] = target: T27, PUM1 PUF domain R3-TSR C935T + R936S + Q939R (Homo sapiens) (UniProt Q14671)
# T27 sequence: T1 sequence with S108T, P109S, S112R
# [28] = target: T28, PUM1 PUF domain R3-TVE C935T + R936V + Q939E (UniProt Q14671)
# T28 sequence: T1 sequence with S108T, P109V, S112E
# [29] = target: T29, PUM1 PUF domain R3-VCE C935V + R936C + Q939E (UniProt Q14671)
# T29 sequence: T1 sequence with S108V, P109C, S112E
# [30] = target: T30, PUM1 PUF domain R3-VCK C935V + R936C + Q939K (Homo sapiens) (UniProt Q14671)
# T30 sequence: T1 sequence with S108V, P109C, S112K
# [31] = target: T31, PUM1 PUF domain R3-VFA C935V + R936F + Q939A (Homo sapiens) (UniProt Q14671)
# T31 sequence: T1 sequence with S108V, P109F, S112A
# [32] = target: T32, PUM1 PUF domain R3-VFF C935V + R936F + Q939F (Homo sapiens) (UniProt Q14671)
# T32 sequence: T1 sequence with S108V, P109F, S112F
# [33] = target: T33, PUM1 PUF domain R3-VFG C935V + R936F + Q939G (Homo sapiens) (UniProt Q14671)
# T33 sequence: T1 sequence with S108V, P109F, S112G
# [34] = target: T34, PUM1 PUF domain R3-VFW C935V + R936F + Q939W (UniProt Q14671)
# T34 sequence: T1 sequence with S108V, P109F, S112W
# [35] = target: T35, PUM1 PUF domain R3-VFY C935V + R936F + Q939Y (UniProt Q14671)
# T35 sequence: T1 sequence with S108V, P109F, S112Y
# [36] = target: T36, PUM1 PUF domain R3-VHP C935V + R936H + Q939P (UniProt Q14671)
# T36 sequence: T1 sequence with S108V, P109H, S112P
# [37] = target: T37, PUM1 PUF domain R3-VNV C935V + R936N + Q939V (UniProt Q14671)
# T37 sequence: T1 sequence with S108V, P109N, S112V
# [38] = target: T38, PUM1 PUF domain R3-VRA C935V + Q939A (UniProt Q14671)
# T38 sequence: T1 sequence with S108V, P109R, S112A
# [39] = target: T39, PUM1 PUF domain R3-VRC C935V + Q939C (UniProt Q14671)
# T39 sequence: T1 sequence with S108V, P109R, S112C
# [40] = target: T40, PUM1 PUF domain R3-VRF C935V + Q939F (UniProt Q14671)
# T40 sequence: T1 sequence with S108V, P109R, S112F
sequence,measurement,setting,value
GGCUAGAACUAGUGGAUCCCCCGGCGCCCGGCGGCUCGAGCCCGGGUAAGUGUAACUAGUCUGCAUGCCGCCGGGCGCCAUGCCUGCAGGUCGACUCUAGAAAACAUG,binding signal (log2 enrichment (interaction score)),[1],< -7.52
same,binding signal (log2 enrichment (interaction score)),[2],< -6.47
same,binding signal (log2 enrichment (interaction score)),[3],< -9.38
same,binding signal (log2 enrichment (interaction score)),[4],< -9.28
same,binding signal (log2 enrichment (interaction score)),[5],-4.16
same,binding signal (log2 enrichment (interaction score)),[6],-6.17
same,binding signal (log2 enrichment (interaction score)),[7],-5.78
same,binding signal (log2 enrichment (interaction score)),[8],< -8.87
same,binding signal (log2 enrichment (interaction score)),[9],< -6.74
same,binding signal (log2 enrichment (interaction score)),[10],-3.03
same,binding signal (log2 enrichment (interaction score)),[11],-5.69
same,binding signal (log2 enrichment (interaction score)),[12],< -7.51
same,binding signal (log2 enrichment (interaction score)),[13],-6.68
same,binding signal (log2 enrichment (interaction score)),[14],< -8.72
same,binding signal (log2 enrichment (interaction score)),[15],< -8.14
same,binding signal (log2 enrichment (interaction score)),[16],< -7.16
same,binding signal (log2 enrichment (interaction score)),[17],-3.96
same,binding signal (log2 enrichment (interaction score)),[18],-6.76
same,binding signal (log2 enrichment (interaction score)),[19],-2.06
same,binding signal (log2 enrichment (interaction score)),[20],< -9.55
same,binding signal (log2 enrichment (interaction score)),[21],< -9.5
same,binding signal (log2 enrichment (interaction score)),[22],-6.02
same,binding signal (log2 enrichment (interaction score)),[23],-5.34
same,binding signal (log2 enrichment (interaction score)),[24],-4.17
same,binding signal (log2 enrichment (interaction score)),[25],-6.9
same,binding signal (log2 enrichment (interaction score)),[26],< -7.73
same,binding signal (log2 enrichment (interaction score)),[27],-0.35
same,binding signal (log2 enrichment (interaction score)),[28],< -7.83
same,binding signal (log2 enrichment (interaction score)),[29],< -7.6
same,binding signal (log2 enrichment (interaction score)),[30],-1.89
same,binding signal (log2 enrichment (interaction score)),[31],-0.53
same,binding signal (log2 enrichment (interaction score)),[32],0.04
same,binding signal (log2 enrichment (interaction score)),[33],0.34
same,binding signal (log2 enrichment (interaction score)),[34],< -7.78
same,binding signal (log2 enrichment (interaction score)),[35],< -7.98
same,binding signal (log2 enrichment (interaction score)),[36],< -8.09
same,binding signal (log2 enrichment (interaction score)),[37],< -7.65
same,binding signal (log2 enrichment (interaction score)),[38],< -10.1
same,binding signal (log2 enrichment (interaction score)),[39],< -8.92
same,binding signal (log2 enrichment (interaction score)),[40],< -8.52

# Exported with tabs: entries from further up.
sequence	measurement	setting	value
GGCUAGAACUAGUGGAUCCCCCGGCGCCCGGCGGCUCGAGCCCGGGUAAGUGUAACUAGUCUGCAUGCCGCCGGGCGCCAUGCCUGCAGGUCGACUCUAGAAAACAUG	binding signal (log2 enrichment (interaction score))	[3]	< -9.38
same	binding signal (log2 enrichment (interaction score))	[14]	< -8.72
same	binding signal (log2 enrichment (interaction score))	[28]	< -7.83
